PubChem BioAssay AID1224830 – NIAID – 2016

Screen: 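Regulators of TLR4 signalling towards TNF-alpha in macrophage-like cells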 (primary screen)
System: human THP-1 monocytic leukaemia cells, TNF dual-luciferase reporter clone, PMA-differentiated to macrophage-like cells
Knock-down reagent: siRNA pool against human genes, 50 nM
Duration: LPS for 4 h, given about 3 days after siRNA transfection
Challenge: bacterial LPS (TLR4 ligand), 10 ng/ml
Read-out: 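Ratio of firefly to renilla light, scaled to the plate median and expressed as a robust z-score per replicate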
Reading the numbers: TNF reporter robust z-score: higher = stronger TNF reporter response to LPS
Hit rule: 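a well is active when its z-score exceeds 2.8 or falls below -1.5; control wells carry no call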
This is one part, drawn at random, of about 18,000 reagents tested. About 2,900 of all reagents (16%) were called active. 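Calls are made per well; low scores hint the gene aids the LPS response, high scores that it dampens it.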 A number with no mark means an inactive call. Repeated entries: four replicate wells of each siRNA pool.

Against VSTM2L the deposit lists TNF reporter robust z-score -1.99 (active).
Against VSTM2L the deposit lists TNF reporter robust z-score -1.16.
With knock-down of VSTM2L the results were TNF reporter robust z-score -1.41.
With knock-down of VSTM2L, the record shows TNF reporter robust z-score -0.71.
Knock-down of GNB1 came out at: TNF reporter robust z-score 1.33.
GNB1 gave TNF reporter robust z-score 1.84.
GNB1 scored TNF reporter robust z-score 2.54.
GNB1 scored TNF reporter robust z-score 1.79.
Depletion of MCHR2 resulted in: TNF reporter robust z-score -0.15.
Against MCHR2, the values are TNF reporter robust z-score 1.53.
Against MCHR2 the deposit lists TNF reporter robust z-score -0.65.
After knock-down of MCHR2, the screen gave TNF reporter robust z-score -0.95.
MBOAT7 gave TNF reporter robust z-score 0.31.
MBOAT7 showed TNF reporter robust z-score 1.67.
With knock-down of MBOAT7, the screen gave TNF reporter robust z-score 0.77.
Against MBOAT7, the values are TNF reporter robust z-score 1.4.
With knock-down of OR51B4, the screen gave TNF reporter robust z-score 0.01.
OR51B4 gave TNF reporter robust z-score -0.02.
Silencing of OR51B4 gave: TNF reporter robust z-score -0.25.
Silencing of OR51B4 came out at: TNF reporter robust z-score -0.17.

Hits (from the list above):
VSTM2L → TNF reporter robust z-score = -1.99 (active)
